The shares of active, inactive and inconclusive entries below differ from those in the screen. Potencies of inconclusive entries are doubtful fits and often do not repeat. Activity calls are given as the source filed them. Calls follow the shape of the dose curve; as a rule, active = well fitted cell-killing curve with a large enough effect; inconclusive = small, poorly fitted or top-dose-only effect, or effect the other way; inactive = no such curve, though single readings can be large or run the other way.
Assay: Quantitative High-Throughput drug screen in 47 multiple myeloma cell lines against the NCATS MIPE library collection: JIM1_ECACC cell viability assay (AID 1918964)
Conditions: JIM1 myeloma viability, CellTiter-Glo ATP luminescence, 48 h; series mostly up to 45.8 µM
Excerpt: PI: Beverly A. Mock Ph.D.
Laboratory of Cancer Biology and Genetics,
Center for Cancer Research, National Cancer Institute,
National Institute of Health, Bethesda, Maryland
Drug resistance and disease progression are common in multiple myeloma (MM) patients, underscoring the need for new therapeutic combinations. […] We hypothesized that effective combinations would reduce MYC expression and enhance p16 activity. […] These preclinical data identify potentially useful drug combinations for evaluation in drug-resistant MM and reveal potential mechanisms of combined drug sensitivity.
Described herein is the primary MIPE qHTS used to cherrypick compounds. Validated compounds were then further tested for potential synergistic activiy.
[1] Peat TJ, Gaikwad SM, Dubois W, Gyabaah-Kessie N, Zhang S, Gorjifard S, Phyo Z, Andres M, Hughitt VK, Simpson RM, Miller MA, Girvin AT, Taylor A, Williams D, D'Antonio N, Zhang Y, Rajagopalan A, Flietner E, Wilson K, Zhang X, Shinn P, Klumpp-Thomas C, McKnight C, Itkin Z, Chen L, Kazandijian D, Zhang J, Michalowski AM, Simmons JK, Keats J, Thomas CJ, Mock BA. Drug combinations identified by high-throughput screening promote cell cycle transition and upregulate Smad pathways in myeloma. Cancer Lett. 2023 Aug 1;568:216284. doi: 10.1016/j.canlet.2023.216284. Epub 2023 Jun 24. PMID: 37356470; PMCID: PMC10408729.
SEQUENCE No. (e.g., 1, 2, 3, etc.); […] (e.g., Cells, Incubation, Reagent, etc.); VALUE and DESCRIPTION.
1; Cells; 5 uL; white, solid bottom 1536-well Greiner assay plate.
2; Compounds; 23 nL; Kalypsis pin tool (Wako USA) equipped with a 1536-well pin head to transfer to the assay plates.
3; Incubation; 48 hours; 37C incubation.
4; Reagent;5uL; CellTiter Glo (Promega).
5; Detector; 425V; Luminescence; Viewlux PerkinElmer.
NOTES (numbers refer to Sequence numbers above)
1. The cell-based screening methods employed in this study were like those previously published. Briefly, the corresponding myeloma cell lines were screened in 1,536-well plates with 500 cells, 5-uL per well for inhibition of cell viability (assessed by measuring ATP levels with CellTiterGlo).
2. NCATS MIPE 4.0 library of approved and investigational drugs were added using the Kalypsis pin tool. Wells treated with DMSO only for 100% viability and media only wells for 0% viability were used as controls.
3. The assay plates were covered and incubated for 48 hours in a 37C, 5% CO2 incubator with controlled humidity.
4. After 48 hours, CellTilter-GloTM luminescent substrate mix (Promega) reagent was added to the assay plate and plates we incubated for 5 min at room temperature.
5. Signal was measured as median relative luminescence units on a ViewLux (PerkinElmer) multiplate reader.
[1] Heske CM, Davis MI, Baumgart JT, Wilson K, Gormally MV, Chen L, Zhang X, Ceribelli M, Duveau DY, Guha R, Ferrer M, Arnaldez FI, Ji J, Tran HL, Zhang Y, Mendoza A, Helman LJ, Thomas CJ. Matrix Screen Identifies Synergistic Combination of PARP Inhibitors and Nicotinamide Phosphoribosyltransferase (NAMPT) Inhibitors in Ewing Sarcoma. Clin Cancer Res. 2017 Dec 1;23(23):7301-7311. doi: 10.1158/1078-0432.CCR-17-1121. Epub 2017 Sep 12. PMID: 28899971; PMCID: PMC6636827.
Potency is read from the fitted curve at half-maximal effect.

SMILES | Potency
O=C(O)c1cc(O)c2c(c1)C(=O)c1cccc(O)c1C2=O | inconclusive: 0.241 µM [cytotoxic, full curve, poor fit]
O=C(c1ccccc1)c1ccc2n1CCC2C(=O)O (stereo not given) | inconclusive: 20.9 µM [cytotoxic, partial curve, poor fit]
COc1ccc(-c2oc3cc(OC)ccc3c2C(=O)c2ccc(C#N)cc2)cc1 | active: 6.62 µM
C=C(c1ccc(C(=O)O)cc1)c1cc2c(cc1C)C(C)(C)CCC2(C)C | inconclusive: 0.0015 µM [rising, full curve, poor fit]
O=c1cc(-c2ccccc2)oc2cc(O)c(O)c(O)c12 | inconclusive: 0.0017 µM [cytotoxic, full curve, poor fit]
CNCC[C@H](Oc1cccc2ccccc12)c1cccs1 | inconclusive: 29.6 µM [cytotoxic, single point]
Cc1ccccc1C(C(=O)NC1CCCCC1)N(C(=O)Cn1ccnc1C)c1cccc(F)c1 (stereo not given) | inconclusive: 5.9 µM [cytotoxic, full curve, poor fit]
NC(=O)c1cccc2[nH]c(-c3ccc([C@H]4CCCN4)cc3F)nc12 | inconclusive: 33.2 µM [cytotoxic, single point]
C[C@H](NC(=O)C(=O)Nc1ccccc1C(C)(C)C)C(=O)N[C@@H](CC(=O)O)C(=O)COc1c(F)c(F)cc(F)c1F | active: 4.18 µM
C[C@](N)(Cc1ccc(O)c(O)c1)C(=O)O | inconclusive: 0.0074 µM [cytotoxic, full curve, poor fit]
Cc1c(NC(=O)c2ccc(C(C)(C)C)cc2)cccc1-c1cn(C)c(=O)c(Nc2ccc(C(=O)N3CCOCC3)cc2)n1 | inconclusive: 11.8 µM [cytotoxic, single point]
CO[C@H]1C[C@@H]2CC[C@@H](C)[C@@](O)(O2)C(=O)C(=O)N2CCCC[C@@H]2C(=O)O[C@H]([C@H](C)C[C@@H]2CC[C@H](OCCO)[C@H](OC)C2)CC(=O)[C@H](C)C=C(C)[C@@H](O)[C@@H](OC)C(=O)[C@H](C)C[C@H](C)C=CC=CC=C1C | inconclusive: 20.9 µM [cytotoxic, partial curve, poor fit]
C[C@H](NC(=O)c1sccc1OCc1ccc(Cl)cc1)c1ccccc1 | inconclusive: 0.0166 µM [cytotoxic, full curve, poor fit]
NC(CO)C(=O)NNCc1ccc(O)c(O)c1O (stereo not given) | inconclusive: 1.32 µM [cytotoxic, full curve, poor fit]
NC(=O)c1ccc(-c2nc(-c3ccc4c(c3)OCCO4)c(-c3ccccn3)[nH]2)cc1 | inconclusive: 20.9 µM [cytotoxic, single point]
O=C(Nc1nc2ccccc2n1CCN1CCOCC1)c1cccc([N+](=O)[O-])c1 | active: 5.26 µM
Oc1ccc(C2CCN(c3ccnc4ccccc34)CC2)cc1O | inconclusive: 16.6 µM [cytotoxic, partial curve, poor fit]
COc1cc2nc(N3CCCN(C)CC3)nc(NC3CCN(Cc4ccccc4)CC3)c2cc1OC | active: 7.43 µM
COc1ccc(-c2coc3cc(O)ccc3c2=O)cc1 | inactive
CO[C@H]1C=CC=C(C)C(=O)NC2=CC(=O)C(NCCN(C)C)=C(C[C@@H](C)C[C@H](OC)[C@@H](O)[C@@H](C)C=C(C)[C@@H]1OC(N)=O)C2=O | active: 0.0209 µM

Quoted at random: 2 compounds from above
SMILES | Potency
O=C(Nc1nc2ccccc2n1CCN1CCOCC1)c1cccc([N+](=O)[O-])c1 | active: 5.26 µM
NC(=O)c1cccc2[nH]c(-c3ccc([C@H]4CCCN4)cc3F)nc12 | inconclusive: 33.2 µM [cytotoxic, single point]

More results.

SMILES | Potency
CCCCCNC(=O)N1CCC(CN(Cc2ccc(Cl)cc2)Cc2ccc([N+](=O)[O-])s2)C1 (stereo not given) | inconclusive: 26.4 µM [cytotoxic, partial curve, poor fit]
Cc1cccc(Nc2nc(-c3ccncc3)cs2)c1 | inconclusive: 33.2 µM [cytotoxic, single point]
C=CC(=O)Nc1cccc(Sc2nc(Nc3ccc(N4CCN(C)CC4)cc3)ncc2Cl)c1 | inconclusive: 2.64 µM [cytotoxic, partial curve, poor fit]
O=C(Nc1ccccc1-c1cn2c(CN3CCNCC3)csc2n1)c1cnc2ccccc2n1 | active: 2.96 µM
CC(C)CNc1ccnc(NCc2csc(-c3ccccc3)n2)n1 | active: 11.8 µM
COc1ccccc1OCC(O)CN1CCN(CC(=O)Nc2c(C)cccc2C)CC1 (stereo not given) | inactive
OC[C@H]1O[C@@H](n2cnc3c2NC=NC[C@@H]3O)C[C@H]1O | inactive
O=C(Nc1cc2cc[nH]c2cn1)c1ccccc1 | inconclusive: 0.743 µM [cytotoxic, partial curve, poor fit]
CCCCN(CCCC)CCC(O)c1cc2c(Cl)cc(Cl)cc2c2cc(C(F)(F)F)ccc12 (stereo not given) | inconclusive: 29.6 µM [cytotoxic, single point]
NS(=O)(=O)c1cc(C(=O)O)c(NCc2ccco2)cc1Cl | inactive
COC(=O)C1=C(C)NC(C)=C(C(=O)OCCN2CCN(C(c3ccccc3)c3ccccc3)CC2)C1c1cccc([N+](=O)[O-])c1 (stereo not given) | inconclusive: 0.0148 µM [cytotoxic, full curve, poor fit]
Cc1csc(NC(=O)c2sc3nc4c(c(C(F)(F)F)c3c2N)CCC4)n1 | inconclusive: 11.8 µM [cytotoxic, single point]
O=c1c(-c2ccc(O)cc2)coc2cc(OC3O[C@H](CO)[C@H](O)[C@H](O)[C@H]3O)cc(O)c12 (stereo not given in full) | inactive
N=c1ccn2c(n1)O[C@H]1[C@@H](O)[C@@H](CO)O[C@H]12 | inactive
Oc1cc(O)cc(C=Cc2ccc(O)c(O)c2)c1 | active: 16.6 µM
O[C@@H](COc1cccc2ncccc12)CN1CCN(C2c3ccccc3[C@@H]3[C@H](c4ccccc42)C3(F)F)CC1 (stereo not given in full) | inconclusive: 0.0209 µM [cytotoxic, full curve, poor fit]
CC1Cc2ccccc2N1NC(=O)c1ccc(Cl)c(S(N)(=O)=O)c1 (stereo not given) | inconclusive: 0.105 µM [cytotoxic, full curve, poor fit]
COc1ccc(-c2coc3cc(O)cc(O)c3c2=O)cc1 | inconclusive: 23.5 µM [cytotoxic, single point]
Nc1ccccc1NC(=O)c1ccc(CNC(=O)OCc2cccnc2)cc1 | active: 1.48 µM
CCN1CCC(n2cc(CNc3cc(Cl)c4ncc(C#N)c(Nc5ccc(F)c(Cl)c5)c4c3)nn2)CC1 | inconclusive: 8.33 µM [cytotoxic, partial curve, poor fit]

— PubChem BioAssay (NCATS)
